Data from publication PMC6430823.
Results are given in words; binding and its absence hold for the method and conditions named. In cells and extracts the contact can be indirect. Some results given as binding are weak or reduced against the parent protein; the word gives no strength.

Protein sequences, listed by entry. Tags and fused reporters are not part of them.
UniProt O09106: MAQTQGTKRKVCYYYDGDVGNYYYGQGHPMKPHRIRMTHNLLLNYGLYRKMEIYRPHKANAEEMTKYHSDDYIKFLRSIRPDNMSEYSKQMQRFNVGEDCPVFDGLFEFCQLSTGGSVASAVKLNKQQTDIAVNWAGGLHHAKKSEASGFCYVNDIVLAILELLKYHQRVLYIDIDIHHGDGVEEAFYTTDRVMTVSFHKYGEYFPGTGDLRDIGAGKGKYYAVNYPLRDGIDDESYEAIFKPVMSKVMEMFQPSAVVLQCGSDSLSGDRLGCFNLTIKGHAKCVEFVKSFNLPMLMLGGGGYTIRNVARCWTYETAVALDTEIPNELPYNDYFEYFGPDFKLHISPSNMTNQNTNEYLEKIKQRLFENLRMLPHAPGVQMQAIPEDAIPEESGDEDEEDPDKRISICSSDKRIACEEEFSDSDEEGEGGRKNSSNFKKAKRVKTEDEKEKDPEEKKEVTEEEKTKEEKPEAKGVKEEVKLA

Biological target: T1, SMARCAD1 (endogenous, mouse embryonic stem cells) (mouse (endogenous in mouse ESCs)) (UniProt Q04692)
T1 sequence: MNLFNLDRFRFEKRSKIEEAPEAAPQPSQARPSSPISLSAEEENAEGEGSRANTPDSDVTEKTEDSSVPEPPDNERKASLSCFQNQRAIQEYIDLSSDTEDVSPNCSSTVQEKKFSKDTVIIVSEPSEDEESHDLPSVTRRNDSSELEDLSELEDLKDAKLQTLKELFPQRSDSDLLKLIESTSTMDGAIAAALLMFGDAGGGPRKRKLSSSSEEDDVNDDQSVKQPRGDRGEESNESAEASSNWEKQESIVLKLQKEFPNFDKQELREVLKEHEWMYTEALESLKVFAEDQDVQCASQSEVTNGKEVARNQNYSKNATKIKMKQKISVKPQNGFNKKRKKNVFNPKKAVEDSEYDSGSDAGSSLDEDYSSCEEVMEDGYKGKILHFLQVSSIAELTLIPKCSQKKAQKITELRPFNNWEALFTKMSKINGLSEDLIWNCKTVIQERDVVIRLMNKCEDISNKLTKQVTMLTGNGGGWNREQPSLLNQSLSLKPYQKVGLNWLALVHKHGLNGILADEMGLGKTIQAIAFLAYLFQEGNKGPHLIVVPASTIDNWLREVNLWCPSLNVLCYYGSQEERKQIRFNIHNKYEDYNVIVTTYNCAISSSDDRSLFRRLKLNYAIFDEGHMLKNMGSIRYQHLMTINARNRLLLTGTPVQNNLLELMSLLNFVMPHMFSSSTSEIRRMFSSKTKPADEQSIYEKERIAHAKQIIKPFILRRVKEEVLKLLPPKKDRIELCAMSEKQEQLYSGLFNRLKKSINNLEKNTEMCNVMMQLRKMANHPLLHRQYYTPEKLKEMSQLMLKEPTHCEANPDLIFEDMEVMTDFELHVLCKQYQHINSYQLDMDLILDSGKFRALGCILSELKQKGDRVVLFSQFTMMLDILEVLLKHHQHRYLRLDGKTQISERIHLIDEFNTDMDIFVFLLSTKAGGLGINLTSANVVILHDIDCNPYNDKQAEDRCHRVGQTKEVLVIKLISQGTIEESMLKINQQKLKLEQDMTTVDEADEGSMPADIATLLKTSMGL
Experiment: co-IP; SMARCAD1-specific antibody on mESC nuclear extract (150 μg), with 150 units/ml Benzonase and 0.1 μg/μl ethidium bromide; Protein G Dynabeads; washes with 100 mM KCl, 0.05% Triton X-100; western blot

binding: binds
Substance: HDAC1 (endogenous, mouse embryonic stem cells) (from UniProt O09106 1-482)
